Data published in US20240165148A1, “HYALURONIC ACID-CONJUGATED DIPALMITOYL PHOSPHATIDYL ETHANOLAMINE IN COMBINATION WITH NON-STEROIDAL ANTI-INFLAMMATORY DRUGS (NSAIDS) FOR TREATING OR ALLEVIATING INFLAMMATORY DISEASES” (priority 2021, published 2024).
At least one structure is not confirmed: it was looked up by name or label, or the drawing left a doubt.

What was measured:
[1] = test system: LTB4 production in the hippocampus (HC); conditions: Student's T test
[2] = test system: LTB4 production in the hypothalamus (HT); conditions: drug alone, no LPS, Student's T test

Cc1ccc(-c2cc(C(F)(F)F)nn2-c2ccc(S(N)(=O)=O)cc2)cc1 [Celecoxib]
Effect on LPS-induced LTB4 production (in words) ([1]; LPS-stimulated rats): even more pronounced | LTB4 production vs. Control (in words) ([1]; drug alone, no LPS): increased | LTB4 production vs. Control (in words) [2]: increased
